# Measured values taken from PubChem BioAssay AID1347423 (Functional Genomics Laboratory (NCATS/FGL), 2020).
# In all, about 52,000 sequences went through this assay and about 210 (0.4%) were called active.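 The calls were made as follows: active = gene whose silencing raises cell survival under the drug, median off-target-corrected z-score across its silencing RNAs 2 or more; inactive = the rest.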 Some of the results follow.
# Experiment: Resistance to Poly (ADP-Ribose) Polymerase inhibitor: Gene Identification via Genome-wide siRNA Screen
# Details: mouse BRCA2 R2336H ES cells, olaparib, CellTiter-Glo viability; stronger effect = higher value
# Method in brief: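 Genome-wide siRNA screen (3 siRNAs/gene, 20 nM) in mouse ES cells carrying hypomorphic BRCA2 R2336H; olaparib 500 nM added 48 h post-transfection, CellTiter-Glo viability 72 h later. Normalized to plate-median negative control; MAD z-scores, gene median, seed-adjusted.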
row,Sequence,z-score
1,GGUACUCUGGAGCUUCAAGTT against 2900092E17Rik,inactive: -0.232
2,GGCACCAAUUACAAGAAAATT against V1rg10,inactive: -1.65
3,GGGCUGUUCUAAUUCCUUCTT against Il17f,inactive: 0.391
4,GGGUUAAAUGCAAUGCAGCTT against Cugbp1,inactive: 0.708
5,GCUUUAUUCCUACCGGGAUTT against Dgat1,inactive: 0.757
6,GGAGCUACAAUCUGAAGUATT against 4930403L05Rik,inactive: -0.0543
7,GGAAGAAACAACAAUGAUCTT against BB146404,inactive: 0.6
8,GGUUUUUCAAACAAGAGCATT against Slc16a10,inactive: 0.608
9,GGCGUAUACCGGGAAUCCUTT against Ndrl,inactive: 0.787
10,CGUAUCAGAUCGGGACUUUTT against Ifnk,inactive: 0.493
11,GGUGAAACGCAAAAUAUUCTT against Klkb1,inactive: 2.45
12,CGAUGGGACCAAGAUUAGUTT against BC027127,inactive: -0.013
13,GGAGAUAUUUUUCUUGUCCTT against Vcp,inactive: -3.1
14,GGCUCAGUAAGGACUCUGATT against Tac2,inactive: 0.221
15,UGGGUGAUCUCUGUAAUAATT against LOC387334,inactive: -1.59
16,CGGUCAACAUCAAUGGUAATT against Gkn1,inactive: -1.21
17,GGCUCUUUCAACGUAAAUUTT against 6030441H18Rik,inactive: -0.877
18,GCUACAUCUCAGAAAUCGGTT against Tbn,inactive: 0.131
19,GGCCUUUGGUACAUGUAGUTT against Olfr692,inactive: 0.285
20,GGAUUCAAAAAAAAAUCGCTT against A2m,inactive: 1.46
21,CCCAUCUUCGUAAAGAGAATT against Mtx1,inactive: 0.497
22,CCCUUAGGAAACAUGUGGATT against 4930519G04Rik,inactive: -0.75
23,GGACUUAGACAUCCACCUCTT against 1700034O15Rik,inactive: -0.799
24,GGAUACAAUCCGAAUGAUGTT against 2610208E05Rik,inactive: 0.718
25,GGCUUCACUAUACGAGAGATT against Nical,inactive: 0.501
26,GCUACCUAUGCCAAUAUCATT against Efemp1,inactive: 0.528

# Given with bars between the fields: part of the list above.
row | Sequence | z-score
1 | GGUACUCUGGAGCUUCAAGTT against 2900092E17Rik | inactive: -0.232
2 | GGCACCAAUUACAAGAAAATT against V1rg10 | inactive: -1.65
3 | GGGCUGUUCUAAUUCCUUCTT against Il17f | inactive: 0.391
4 | GGGUUAAAUGCAAUGCAGCTT against Cugbp1 | inactive: 0.708
5 | GCUUUAUUCCUACCGGGAUTT against Dgat1 | inactive: 0.757
6 | GGAGCUACAAUCUGAAGUATT against 4930403L05Rik | inactive: -0.0543
7 | GGAAGAAACAACAAUGAUCTT against BB146404 | inactive: 0.6
8 | GGUUUUUCAAACAAGAGCATT against Slc16a10 | inactive: 0.608
9 | GGCGUAUACCGGGAAUCCUTT against Ndrl | inactive: 0.787
10 | CGUAUCAGAUCGGGACUUUTT against Ifnk | inactive: 0.493
11 | GGUGAAACGCAAAAUAUUCTT against Klkb1 | inactive: 2.45
12 | CGAUGGGACCAAGAUUAGUTT against BC027127 | inactive: -0.013
13 | GGAGAUAUUUUUCUUGUCCTT against Vcp | inactive: -3.1
14 | GGCUCAGUAAGGACUCUGATT against Tac2 | inactive: 0.221
15 | UGGGUGAUCUCUGUAAUAATT against LOC387334 | inactive: -1.59
16 | CGGUCAACAUCAAUGGUAATT against Gkn1 | inactive: -1.21
17 | GGCUCUUUCAACGUAAAUUTT against 6030441H18Rik | inactive: -0.877
18 | GCUACAUCUCAGAAAUCGGTT against Tbn | inactive: 0.131
19 | GGCCUUUGGUACAUGUAGUTT against Olfr692 | inactive: 0.285
20 | GGAUUCAAAAAAAAAUCGCTT against A2m | inactive: 1.46
21 | CCCAUCUUCGUAAAGAGAATT against Mtx1 | inactive: 0.497

# Additional results:

row,Sequence,z-score
1,GGUUUUUCUAACUUUGGUCTT against D030010E02Rik,inactive: -0.0912
2,GGCCUGUAGUCAAUGGAAATT against Acvrinp1,inactive: 0.137
3,CCUUAGAUAUCUACUGUAATT against Trim2,inactive: 0.0568
4,GCAUUUAUUACUGUGGAGATT against Olfr1467,inactive: 0.795
5,CGCCGAAACACUCGUUAUATT against 1110012E06Rik,inactive: 0.281
6,GGAACACUCUGAAUUCAUUTT against Cxcl15,inactive: -0.473
7,CCUGACUCGUCUCAAUAAATT against 4930562D19Rik,inactive: -0.888
8,GCUCAAAAGAAGUGAGCCUTT against 4631405J19Rik,inactive: -1.08
9,GUUACAGUAUUCUAUGGGATT against Olfr1080,inactive: 0.947
10,GGUGGAAGAUUAGUGACUUTT against Trim38,inactive: -0.545
11,CCCUAUACCUGAAGCAUUATT against Gabrr2,inactive: -1.26
12,GCUUGAUUUGACCACGCUGTT against 5330410G16Rik,inactive: 2.36
13,CGAAGAGUCCAUCAUUGCGTT against Dcpp,inactive: -0.898
14,GGCAUCUUCGAAAAAUGAUTT against Reck,inactive: -0.0385
15,GGGAUAAAACAGGUUCAAGTT against 4933424N09Rik,inactive: 0.727
16,GGAUAAGGAUGCUAAAUUCTT against Rps13,inactive: -3.12
17,GGGAAGUUAUAAUGGAAGUTT against Rps15a,inactive: -0.0112
18,GCAUCAGAUGGCUAUUUGUTT against 2510001I10Rik,inactive: -0.0394
19,CGUAUCAACAUCUCAGAAGTT against Pcbp2,inactive: 0.263
20,GCUAAAGAAGGUAACUCAGTT against Zfyve28,inactive: -0.0366
21,GGAUAAUGGAGCAAAUUGCTT against Slc22a1,inactive: 0.0691
22,UGAUAAGUAGUCCCUCCUUTT against 7420402K12Rik,inactive: -0.676
23,GCGCAAUUAAAGAAGAACATT against Tcerg1,inactive: 0.333
24,GGAACUACAACAGAAACGATT against Azi1,inactive: -1.11
25,CCUAUACCAGAUUUACAGGTT against Mtx1,inactive: 0.0749
26,GGCAGAAAGUAAAUCCGUGTT against 1200009I06Rik,inactive: -0.871

row,Sequence,z-score
1,GGCAACGGUUGAAUAAACATT against Mrgpra3,inactive: 0.186
2,GCAAAUUGGUCAUCGACUGTT against Alg1,inactive: 0.915
3,GGACAUUCUCUACCGAAUATT against Bucs1,inactive: -0.639
4,GCUCUCACAGGAUAAGGCUTT against Cryga,inactive: 0.229
5,GGUCAACUAAGUUAAAUGGTT against Pnma2,inactive: 1.67
6,GGCCCAAGAGCAUUCUGGATT against Slc25a19,inactive: -0.238
7,CCCUCGAAAAGACAGUGAGTT against Tbx1,inactive: 0.284
8,GGCCACUUUUCACCACAAATT against 1700006H02Rik,inactive: -0.00624
9,GGAGGAGCAACCCAUGUCUTT against ICRFP703B1614Q5.6,inactive: -0.195
10,GGACAGCUACAAGAGGAGATT against Fbxl4,inactive: -0.46
11,GGCUAUGUUACCAGAAAGCTT against 2310010G13Rik,inactive: 2
12,GGGCCACCCAAAAUAACUCTT against Mtl5,inactive: 0.37
13,CCCACACAAUUCUCAUGGGTT against Olfr366,inactive: 1.7
14,GGGAAUCAACGCAAAGUUGTT against Pcdhga5,inactive: 0.429
15,GGUAUCAGACAGCUGUAACTT against 1810030J14Rik,inactive: -0.138
16,GCUAAUGAUACAGAAGUUGTT against Snrpb2,inactive: 0.0437
17,GGAGGAACAGAGAGUUUGGTT against Kifc2,inactive: 1.08
18,GCAAUUGAGAUCUAUACAGTT against Napa,inactive: 0.715
19,AACAGGAAUCUUCUGUAGUTT against 2210019E14Rik,inactive: -0.227
20,GUUCUUACACCCAUCUUGATT against Olfr1414,inactive: 2.56
21,GGACACCAUGGAAGACUCUTT against Krtap16-8,inactive: 0.454
22,GGCAAGGAUGAUGUCUUCGTT against Upk1a,inactive: -1.87
23,CCAGGAUUGGACUGAUAGUTT against 0610010D20Rik,inactive: -0.154
24,GGAAAACACACUUUUCUUUTT against 9030625G08Rik,inactive: -0.0193
25,GCCUAACGGAGAGGUAUUUTT against Gal3st1,inactive: -0.0688
26,GCAUAGAUGAAGCAAUACUTT against Ugp2,inactive: -0.234

row,Sequence,z-score
1,GGCAUUGCAUGUGCACGAUTT against Ror1,inactive: -0.0564
2,GCAAUAACCCAAUUCCUGATT against Phex,inactive: -0.693
3,GGCAACAAAUCAAAGCAGCTT against Anxa7,inactive: 0.066
4,GCCAAGGUUAUCAUGAAUGTT against F13a,inactive: 0.684
5,GGCAGGAGCAAAACAUUUUTT against Olfr1111,inactive: -0.768
6,GGUCCUCAGCAGUCAUCAUTT against Sprr2h,inactive: -1.34
7,GGUCGAAAGAAUAAUUUGUTT against Cct6a,inactive: -2.15
8,GGAACUAACAGCCCUACUATT against Sprn,inactive: -1.33
9,GCUAAGCUUGUCUAAAAUCTT against Ttk,inactive: 0.0426
10,CCCAAAGCGUGACUGUCAATT against Sema4b,inactive: 0.671
11,CACGACCUAGGUGUGACCATT against Arrdc2,inactive: -1.58
12,GCGAGAAGCUUUAGAACGATT against D19Ertd721e,inactive: 0.59
13,GGUCAAUGGAGUAGAUUUATT against Pard3,inactive: 0.681
14,GCCAAGUAGUAUGUUUCUUTT against Sprn,inactive: 0.747
15,GGAAUACUGGUCUUGCUGUTT against Fbxo23,inactive: 0.738
16,GGAGCGAGAUACUCCUAAATT against Epha6,inactive: 0.585
17,GCAUAAGAAGCAACGUGUGTT against Strn4,inactive: 3.02
18,CCCUUCCUUUUACCAACAATT against Tmod4,inactive: 1.51
19,CCAUGACUACCUGCCUCUGTT against LOC328644,inactive: 0.768
20,GGAAAUAGAAGAAAAACUCTT against 9430010O03Rik,inactive: 0.871
21,GCCUCAGCAUUACCACUAUTT against Pof1b,inactive: 2.18
22,CCCAAAGUUACAACACUGUTT against LOC380907,inactive: -0.606
23,GGAUUUAGGCUAGACCGGGTT against BB220380,inactive: 0.294
24,GCUAGCAAGUGAGAUGGAGTT against Mbd3l1,inactive: -1.17
25,GGUUGACAUCGACCAAUCATT against Klhl1,active: 1.3
